Laboratory results as given in doi:10.1101/2025.03.07.642025, “The TONSL-MMS22L complex and FANCM form an interdependent complex on chromatin to counter replication stress” (bioRxiv, 2025).
Results are given in words; binding and its absence hold for the method and conditions named. For some assays here: Binding seen in cells or lysates may run through a third protein. Some binding calls cover weakened binding; strength is not graded here.

Sequences of proteins named here, by UniProt entry; tags and fusion partners are left off.
UniProt Q8IYD8: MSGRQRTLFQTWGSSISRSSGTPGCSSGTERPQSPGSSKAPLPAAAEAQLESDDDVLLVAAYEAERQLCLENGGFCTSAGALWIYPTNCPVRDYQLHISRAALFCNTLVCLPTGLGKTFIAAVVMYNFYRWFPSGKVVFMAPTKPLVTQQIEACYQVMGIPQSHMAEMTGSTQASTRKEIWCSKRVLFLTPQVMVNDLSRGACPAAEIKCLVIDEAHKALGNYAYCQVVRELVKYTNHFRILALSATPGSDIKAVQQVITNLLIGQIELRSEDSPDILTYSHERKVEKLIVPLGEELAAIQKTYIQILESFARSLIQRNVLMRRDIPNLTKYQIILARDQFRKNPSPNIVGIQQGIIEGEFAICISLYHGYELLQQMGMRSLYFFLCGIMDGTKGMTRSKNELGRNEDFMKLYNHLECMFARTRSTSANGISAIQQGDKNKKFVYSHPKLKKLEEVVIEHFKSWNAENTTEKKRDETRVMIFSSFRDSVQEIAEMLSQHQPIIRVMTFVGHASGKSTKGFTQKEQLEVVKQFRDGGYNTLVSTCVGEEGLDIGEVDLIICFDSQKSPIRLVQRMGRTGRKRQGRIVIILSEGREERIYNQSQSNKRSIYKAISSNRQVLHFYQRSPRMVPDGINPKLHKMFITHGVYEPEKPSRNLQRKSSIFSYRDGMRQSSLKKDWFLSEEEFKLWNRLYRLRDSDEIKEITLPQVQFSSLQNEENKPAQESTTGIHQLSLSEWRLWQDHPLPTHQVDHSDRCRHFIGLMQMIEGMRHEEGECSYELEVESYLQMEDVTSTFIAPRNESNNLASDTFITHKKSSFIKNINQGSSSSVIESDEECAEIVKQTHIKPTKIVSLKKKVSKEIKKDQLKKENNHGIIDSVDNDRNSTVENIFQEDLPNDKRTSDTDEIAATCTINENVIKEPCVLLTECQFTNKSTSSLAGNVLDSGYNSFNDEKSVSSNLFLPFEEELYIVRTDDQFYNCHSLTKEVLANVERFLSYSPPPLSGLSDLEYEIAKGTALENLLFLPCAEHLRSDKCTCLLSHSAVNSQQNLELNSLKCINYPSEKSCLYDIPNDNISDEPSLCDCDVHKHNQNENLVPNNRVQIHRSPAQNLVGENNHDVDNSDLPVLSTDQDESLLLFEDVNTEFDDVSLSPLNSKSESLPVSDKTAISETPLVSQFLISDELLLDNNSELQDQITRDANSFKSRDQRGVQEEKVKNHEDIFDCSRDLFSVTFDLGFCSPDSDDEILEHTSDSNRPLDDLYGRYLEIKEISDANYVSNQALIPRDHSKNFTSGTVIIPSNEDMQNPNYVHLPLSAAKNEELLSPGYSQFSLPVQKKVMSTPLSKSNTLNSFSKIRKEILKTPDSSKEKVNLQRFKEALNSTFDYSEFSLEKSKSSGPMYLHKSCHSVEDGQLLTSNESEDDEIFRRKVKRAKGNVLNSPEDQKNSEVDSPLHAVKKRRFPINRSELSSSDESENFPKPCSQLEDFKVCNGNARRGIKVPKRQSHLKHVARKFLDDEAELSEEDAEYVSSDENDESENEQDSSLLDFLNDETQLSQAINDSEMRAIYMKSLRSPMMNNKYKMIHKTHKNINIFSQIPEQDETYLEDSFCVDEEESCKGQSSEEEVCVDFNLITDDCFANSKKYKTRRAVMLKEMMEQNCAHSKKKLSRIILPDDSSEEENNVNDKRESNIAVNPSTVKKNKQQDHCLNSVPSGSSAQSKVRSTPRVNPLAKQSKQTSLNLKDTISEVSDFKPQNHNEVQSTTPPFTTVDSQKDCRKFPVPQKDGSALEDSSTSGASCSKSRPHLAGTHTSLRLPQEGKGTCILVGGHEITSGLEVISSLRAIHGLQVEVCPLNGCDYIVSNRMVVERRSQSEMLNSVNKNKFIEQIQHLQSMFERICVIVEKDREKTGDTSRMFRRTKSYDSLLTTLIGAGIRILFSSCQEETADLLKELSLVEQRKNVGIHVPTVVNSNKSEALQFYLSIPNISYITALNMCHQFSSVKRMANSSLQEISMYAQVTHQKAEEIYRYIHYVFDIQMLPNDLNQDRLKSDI
UniProt Q8N2Z9: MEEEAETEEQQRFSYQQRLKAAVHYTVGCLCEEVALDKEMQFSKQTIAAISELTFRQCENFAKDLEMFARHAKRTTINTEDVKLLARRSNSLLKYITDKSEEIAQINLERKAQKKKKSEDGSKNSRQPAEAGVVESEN

Assays:
[1] = molecular target: FANCM (human (endogenous in HeLa)) (UniProt Q8IYD8); assay: SEC; Superose 6 gel filtration of soluble chromatin-bound proteins of HU-treated HeLa cells; fractions immunoblotted
[2] = molecular target: FANCM (human (endogenous in HeLa)) (UniProt Q8IYD8); assay: co-IP; IP with FANCM or MHF1 antibody, western blotting; preimmune serum as control; HU-treated HeLa
[3] = molecular target: MHF1 (human (endogenous in HeLa)) (UniProt Q8N2Z9); assay: as above
[4] = molecular target: Flag-tagged FANCM (human) (UniProt Q8IYD8); assay: co-IP; Flag antibody purification from HU-treated HEK293 cells stably expressing Flag-FANCM; immunoblotting
[5] = molecular target: FANCM (human (endogenous in HeLa)) (UniProt Q8IYD8); assay: proximity ligation; Duolink PLA in HeLa cells treated with UVA only (no replication stress)

binding [1]: binds
binding [2]: binds
binding [3]: binds
binding [4]: binds
binding [5]: binds weakly
B1: TONSL (natural protein, human (endogenous in HeLa), UniProt Q96HA7 1-1378, looked up)
chain: MSLERELRQLSKAKAKAQRAGQRREEAALCHQLGELLAGHGRYAEALEQHWQELQLRERADDPLGCAVAHRKIGERLAEMEDYPAALQHQHQYLELAHSLRNHTELQRAWATIGRTHLDIYDHCQSRDALLQAQAAFEKSLAIVDEELEGTLAQGELNEMRTRLYLNLGLTFESLQQTALCNDYFRKSIFLAEQNHLYEDLFRARYNLGTIHWRAGQHSQAMRCLEGARECAHTMRKRFMESECCVVIAQVLQDLGDFLAAKRALKKAYRLGSQKPVQRAAICQNLQHVLAVVRLQQQLEEAEGRDPQGAMVICEQLGDLFSKAGDFPRAAEAYQKQLRFAELLDRPGAERAIIHVSLATTLGDMKDHHGAVRHYEEELRLRSGNVLEEAKTWLNIALSREEAGDAYELLAPCFQKALSCAQQAQRPQLQRQVLQHLHTVQLRLQPQEAPETETRLRELSVAEDEDEEEEAEEAAATAESEALEAGEVELSEGEDDTDGLTPQLEEDEELQGHLGRRKGSKWNRRNDMGETLLHRACIEGQLRRVQDLVRQGHPLNPRDYCGWTPLHEACNYGHLEIVRFLLDHGAAVDDPGGQGCEGITPLHDALNCGHFEVAELLLERGASVTLRTRKGLSPLETLQQWVKLYRRDLDLETRQKARAMEMLLQAAASGQDPHSSQAFHTPSSLLFDPETSPPLSPCPEPPSNSTRLPEASQAHVRVSPGQAAPAMARPRRSRHGPASSSSSSEGEDSAGPARPSQKRPRCSATAQRVAAWTPGPASNREAATASTSRAAYQAAIRGVGSAQSRLGPGPPRGHSKALAPQAALIPEEECLAGDWLELDMPLTRSRRPRPRGTGDNRRPSSTSGSDSEESRPRARAKQVRLTCMQSCSAPVNAGPSSLASEPPGSPSTPRVSEPSGDSSAAGQPLGPAPPPPIRVRVQVQDHLFLIPVPHSSDTHSVAWLAEQAAQRYYQTCGLLPRLTLRKEGALLAPQDLIPDVLQSNDEVLAEVTSWDLPPLTDRYRRACQSLGQGEHQQVLQAVELQGLGLSFSACSLALDQAQLTPLLRALKLHTALRELRLAGNRLGDKCVAELVAALGTMPSLALLDLSSNHLGPEGLRQLAMGLPGQATLQSLEELDLSMNPLGDGCGQSLASLLHACPLLSTLRLQACGFGPSFFLSHQTALGSAFQDAEHLKTLSLSYNALGAPALARTLQSLPAGTLLHLELSSVAAGKGDSDLMEPVFRYLAKEGCALAHLTLSANHLGDKAVRDLCRCLSLCPSLISLDLSANPEISCASLEELLSTLQKRPQGLSFLGLSGCAVQGPLGLGLWDKIAAQLRELQLCSRRLCAEDRDALRQLQPSRPGPGECTLDHGSKLFFRRL
notes: TONSL, human, endogenous in HeLa cells; source: endogenous, HeLa
